Assay [1] addresses mouse MSLN-his (Kaika Biotech, MSL-MM180) (mouse) (UniProt Q61468). The assay is described as follows: ELISA screening on coated MSLN-his. Background: In an ELISA, binding on a coated surface is turned into a signal by an enzyme label.
In assay [2] the target is human MSLN-his (Kaika Biotech, MSL-HM18D) (human) (UniProt Q13421). Kind of assay: ELISA screening on coated MSLN-his.

Chains of the proteins cited; added tags and fusions are not shown. Lines headed by an entry give the natural chain unless they say otherwise; changes in a name come on top. A line that says so, or that is headed by a name, gives the form on record, which may keep a tag or linker. Residues count along the entry.
UniProt Q61468, residues 298-600: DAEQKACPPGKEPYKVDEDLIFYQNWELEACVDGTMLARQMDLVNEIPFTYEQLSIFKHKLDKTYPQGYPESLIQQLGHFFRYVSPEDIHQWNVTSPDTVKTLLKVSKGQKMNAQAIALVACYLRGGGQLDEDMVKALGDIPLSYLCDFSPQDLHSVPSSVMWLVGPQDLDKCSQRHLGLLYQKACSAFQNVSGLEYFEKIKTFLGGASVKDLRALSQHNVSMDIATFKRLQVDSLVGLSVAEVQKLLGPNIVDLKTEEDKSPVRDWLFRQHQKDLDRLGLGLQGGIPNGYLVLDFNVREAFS
human MSLN-his (Kaika Biotech, MSL-HM18D) (Q13421, form named): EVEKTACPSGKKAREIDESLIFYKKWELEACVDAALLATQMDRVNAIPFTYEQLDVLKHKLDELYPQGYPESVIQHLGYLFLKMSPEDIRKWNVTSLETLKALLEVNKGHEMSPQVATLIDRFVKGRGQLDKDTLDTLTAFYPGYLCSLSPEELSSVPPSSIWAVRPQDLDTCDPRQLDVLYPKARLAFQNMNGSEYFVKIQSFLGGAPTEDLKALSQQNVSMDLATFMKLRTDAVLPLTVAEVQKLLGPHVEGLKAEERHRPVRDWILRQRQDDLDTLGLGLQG

The text below walks through data of US20250059278A1.

These are yes or no findings as the source states them, for the method shown. Some binding calls cover weakened binding; strength is not graded here.

B1: MSLN single-domain antibody 3C6 (VHH)
VHH: EVQLVESGGGLVQAGESLRLSCAVSGNIGSIRHMGWHRQDPGKERELVATITTVGTTYYANFVKGRFTISRDNAKNTVYLQMNSLKPEDTGVYYCRATAHPTDYWGQGTQVTVSS
With B1, the binding entry in assay [1] and in assay [2] was “binds” each time.
